Reference: paper PMC9256790 (Molecular cancer therapeutics, 2022)

Test system: MDA-MB-231
Assay: Cell proliferation
Type: cell-based
Conditions: Homo sapiens, MDA-MB-231, read-out: Mean IC50 ± SEM

- IC50: 900 ± 100 pM
SMILES: CC(=O)O[C@H]1C(=O)[C@@]2(C)[C@H]([C@H](OC(=O)c3ccccc3)[C@]3(O)C[C@H](OC(=O)[C@H](O)[C@@H](NC(=O)c4ccccc4)c4ccccc4)C(C)=C1C3(C)C)[C@]1(OC(C)=O)CO[C@@H]1C[C@@H]2O [Paclitaxel]
